# The shares of active, inactive and inconclusive entries below differ from those in the screen. A potency beside an inconclusive call is a rough fit, not a confirmed value. Active and inactive are the calls of the source. The calls were made as follows: active = hit-call score of the fitted dose curve at least 0.9, where 1 is the maximum; inconclusive = response in the unintended direction; inactive = score below 0.9.
# Sequences of proteins named here, by UniProt entry; tags and fusion partners are left off. A change or cut given only in a name is not applied to a line headed by its entry.
# UniProt Q9Y243: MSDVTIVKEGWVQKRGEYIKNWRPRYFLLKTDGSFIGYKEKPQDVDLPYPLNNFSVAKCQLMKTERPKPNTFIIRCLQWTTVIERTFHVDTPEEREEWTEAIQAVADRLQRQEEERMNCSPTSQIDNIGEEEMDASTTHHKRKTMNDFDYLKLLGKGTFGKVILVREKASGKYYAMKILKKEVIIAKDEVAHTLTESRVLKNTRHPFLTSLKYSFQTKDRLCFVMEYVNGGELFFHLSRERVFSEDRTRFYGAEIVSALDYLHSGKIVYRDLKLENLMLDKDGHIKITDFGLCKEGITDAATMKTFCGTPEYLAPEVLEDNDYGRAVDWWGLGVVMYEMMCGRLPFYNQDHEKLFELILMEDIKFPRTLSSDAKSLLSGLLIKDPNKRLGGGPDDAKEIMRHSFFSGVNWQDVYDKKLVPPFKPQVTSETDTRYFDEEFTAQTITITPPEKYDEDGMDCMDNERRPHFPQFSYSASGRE
# Molecular target: human AKT serine/threonine Kinase 3 (AKT3), AKT3 (gene 10000) (UniProt Q9Y243)
# Test: NVS_ENZ_hAKT3: NovaScreen (NVS) Enzymatic Assay for human AKT serine/threonine Kinase 3 (AKT3)
# Method: NVS_ENZ_hAKT3 is a biochemical, single-readout assay that uses extracted gene-proteins in a cell-free assay. Measurements were taken 1 hour after chemical dosing in a 384-well plate.NVS_ENZ_hAKT3 is one of one assay component(s) measured or calculated from the NVS_ENZ_hAKT3 assay. It is designed to make measurements of enzyme activity, a form of enzyme reporter, as detected with fluorescence intensity signals by Fluorescence and electrophoretic mobility shift technology.Data from the assay component NVS_ENZ_hAKT3 was analyzed into 1 assay endpoint. This assay endpoint, NVS_ENZ_hAKT3, was analyzed in the positive analysis fitting direction relative to DMSO as the negative control and baseline of activity. Using a type of enzyme reporter, loss-of-signal activity can be used to understand changes in the enzymatic activity as they relate to the gene AKT3. Furthermore, this assay endpoint can be referred to as a primary readout, because this assay has produced multiple assay endpoints where this one serves a enzymatic activity function. To generalize the intended target to other relatable targets, this assay endpoint is annotated to the kinase intended target family, where the subfamily is serine/threonine kinase. […]
Compound,outcome,AC50
CN(C)C(=S)SSC(=S)N(C)C,inactive,–
CNC(=O)ON=C(C)SC,–,inconclusive: 8.21 µM

# Source: PubChem BioAssay AID2283127 (EPA ToxCast)
